Results are given in words; binding and its absence hold for the method and conditions named. Binding seen in cells or lysates may run through a third protein. Here binding means that the protein was enriched with, or labelled near, the bait; the list need not be complete. Sequences can lack the tags named with a protein.
biological target: T1, UDP-N-acetylglucosamine-peptide N-acetylglucosaminyltransferase (mouse (endogenous in MEFs)) (UniProt Q8CGY8); experiment: affinity purification with mass spectrometry; endogenous OGT immunoprecipitated (antibody AL24) independently from WT, H2O2-treated (2.5 mM, 1.5 h) and OGT-null MEF lysates; tryptic digestion; label-free parallel reaction monitoring (PRM) of chosen peptides, normalised to OGT peptides
T1 sequence: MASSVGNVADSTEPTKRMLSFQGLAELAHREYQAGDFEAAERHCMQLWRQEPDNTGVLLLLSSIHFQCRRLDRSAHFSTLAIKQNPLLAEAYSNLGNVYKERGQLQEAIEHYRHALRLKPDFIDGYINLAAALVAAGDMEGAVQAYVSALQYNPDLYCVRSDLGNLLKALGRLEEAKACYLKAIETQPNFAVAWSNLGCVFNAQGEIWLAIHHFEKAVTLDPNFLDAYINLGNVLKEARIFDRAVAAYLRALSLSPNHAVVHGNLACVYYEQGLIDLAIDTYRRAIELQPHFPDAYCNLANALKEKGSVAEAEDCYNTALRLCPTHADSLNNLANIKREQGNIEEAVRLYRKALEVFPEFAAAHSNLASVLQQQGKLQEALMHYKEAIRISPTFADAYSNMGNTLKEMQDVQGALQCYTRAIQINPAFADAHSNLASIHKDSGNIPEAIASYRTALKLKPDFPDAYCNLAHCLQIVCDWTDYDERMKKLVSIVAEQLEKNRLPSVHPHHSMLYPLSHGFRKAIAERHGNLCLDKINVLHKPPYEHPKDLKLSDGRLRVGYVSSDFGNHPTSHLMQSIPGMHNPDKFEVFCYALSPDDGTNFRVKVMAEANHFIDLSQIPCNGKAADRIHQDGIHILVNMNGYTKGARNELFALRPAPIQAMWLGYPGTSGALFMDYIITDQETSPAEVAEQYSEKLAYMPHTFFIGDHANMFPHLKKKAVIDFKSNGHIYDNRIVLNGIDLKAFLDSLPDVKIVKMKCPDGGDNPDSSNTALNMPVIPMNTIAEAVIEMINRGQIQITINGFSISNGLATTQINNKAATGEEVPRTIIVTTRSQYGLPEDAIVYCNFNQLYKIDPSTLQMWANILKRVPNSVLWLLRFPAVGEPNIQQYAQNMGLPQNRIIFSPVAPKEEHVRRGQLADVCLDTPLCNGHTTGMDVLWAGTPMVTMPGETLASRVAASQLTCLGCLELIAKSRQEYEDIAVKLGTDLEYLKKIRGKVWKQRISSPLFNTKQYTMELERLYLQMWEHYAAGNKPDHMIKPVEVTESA

Amino acid sequences for entries named in this document (tags omitted). Residues count along the entry.
UniProt Q9QZD9: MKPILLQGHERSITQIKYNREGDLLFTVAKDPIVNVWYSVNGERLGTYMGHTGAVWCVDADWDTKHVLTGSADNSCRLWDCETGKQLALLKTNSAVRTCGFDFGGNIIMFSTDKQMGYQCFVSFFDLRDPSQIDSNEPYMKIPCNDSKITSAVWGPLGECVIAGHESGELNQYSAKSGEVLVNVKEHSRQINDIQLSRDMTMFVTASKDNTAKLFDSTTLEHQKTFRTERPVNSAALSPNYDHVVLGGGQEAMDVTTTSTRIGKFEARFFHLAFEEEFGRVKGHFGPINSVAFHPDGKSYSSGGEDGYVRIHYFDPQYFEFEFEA
UniProt Q6ZQH8: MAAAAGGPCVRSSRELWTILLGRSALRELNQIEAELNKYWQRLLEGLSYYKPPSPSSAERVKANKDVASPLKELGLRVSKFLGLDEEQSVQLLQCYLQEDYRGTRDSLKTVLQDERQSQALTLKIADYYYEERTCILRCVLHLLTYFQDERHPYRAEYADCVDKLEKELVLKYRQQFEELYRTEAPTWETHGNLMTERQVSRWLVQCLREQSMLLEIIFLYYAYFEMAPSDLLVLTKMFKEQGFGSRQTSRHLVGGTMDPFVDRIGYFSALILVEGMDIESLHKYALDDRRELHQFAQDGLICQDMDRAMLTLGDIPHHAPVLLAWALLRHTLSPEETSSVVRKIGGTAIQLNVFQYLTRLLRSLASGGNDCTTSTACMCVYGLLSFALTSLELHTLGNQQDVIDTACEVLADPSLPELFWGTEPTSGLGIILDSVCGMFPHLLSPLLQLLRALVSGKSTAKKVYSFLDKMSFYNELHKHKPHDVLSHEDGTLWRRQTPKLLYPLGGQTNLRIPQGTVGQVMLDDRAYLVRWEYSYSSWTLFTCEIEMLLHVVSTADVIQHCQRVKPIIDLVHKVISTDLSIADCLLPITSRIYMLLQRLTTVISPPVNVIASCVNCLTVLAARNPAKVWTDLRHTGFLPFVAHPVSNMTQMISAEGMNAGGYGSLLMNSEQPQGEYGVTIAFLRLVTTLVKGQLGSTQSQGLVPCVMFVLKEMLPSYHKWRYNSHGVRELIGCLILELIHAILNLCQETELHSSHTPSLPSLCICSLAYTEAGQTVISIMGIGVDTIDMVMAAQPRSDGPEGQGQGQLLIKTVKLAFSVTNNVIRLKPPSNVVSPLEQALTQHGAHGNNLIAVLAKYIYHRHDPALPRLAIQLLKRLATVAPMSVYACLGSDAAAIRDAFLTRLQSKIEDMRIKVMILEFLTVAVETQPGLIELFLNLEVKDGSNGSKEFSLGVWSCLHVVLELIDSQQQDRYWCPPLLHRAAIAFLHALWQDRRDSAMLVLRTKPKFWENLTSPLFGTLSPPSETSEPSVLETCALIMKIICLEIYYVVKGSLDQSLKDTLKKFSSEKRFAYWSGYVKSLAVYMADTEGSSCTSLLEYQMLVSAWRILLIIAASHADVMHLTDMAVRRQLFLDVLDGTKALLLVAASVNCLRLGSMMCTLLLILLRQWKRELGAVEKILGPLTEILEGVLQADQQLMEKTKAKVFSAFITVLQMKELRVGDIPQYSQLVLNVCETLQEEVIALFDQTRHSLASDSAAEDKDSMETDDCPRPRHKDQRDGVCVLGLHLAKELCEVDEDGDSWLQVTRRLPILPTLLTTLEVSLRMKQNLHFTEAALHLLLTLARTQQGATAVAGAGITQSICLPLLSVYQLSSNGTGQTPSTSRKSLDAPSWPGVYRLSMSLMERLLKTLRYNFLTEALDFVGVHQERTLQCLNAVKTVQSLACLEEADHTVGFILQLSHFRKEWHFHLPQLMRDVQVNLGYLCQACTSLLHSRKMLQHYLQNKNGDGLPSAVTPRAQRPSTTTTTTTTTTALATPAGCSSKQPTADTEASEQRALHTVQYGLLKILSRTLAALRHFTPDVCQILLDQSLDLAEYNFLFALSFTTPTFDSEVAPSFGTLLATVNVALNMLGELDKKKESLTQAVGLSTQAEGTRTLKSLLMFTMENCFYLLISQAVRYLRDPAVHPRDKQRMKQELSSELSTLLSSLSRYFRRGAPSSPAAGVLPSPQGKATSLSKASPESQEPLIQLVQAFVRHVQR
UniProt Q9QZQ1: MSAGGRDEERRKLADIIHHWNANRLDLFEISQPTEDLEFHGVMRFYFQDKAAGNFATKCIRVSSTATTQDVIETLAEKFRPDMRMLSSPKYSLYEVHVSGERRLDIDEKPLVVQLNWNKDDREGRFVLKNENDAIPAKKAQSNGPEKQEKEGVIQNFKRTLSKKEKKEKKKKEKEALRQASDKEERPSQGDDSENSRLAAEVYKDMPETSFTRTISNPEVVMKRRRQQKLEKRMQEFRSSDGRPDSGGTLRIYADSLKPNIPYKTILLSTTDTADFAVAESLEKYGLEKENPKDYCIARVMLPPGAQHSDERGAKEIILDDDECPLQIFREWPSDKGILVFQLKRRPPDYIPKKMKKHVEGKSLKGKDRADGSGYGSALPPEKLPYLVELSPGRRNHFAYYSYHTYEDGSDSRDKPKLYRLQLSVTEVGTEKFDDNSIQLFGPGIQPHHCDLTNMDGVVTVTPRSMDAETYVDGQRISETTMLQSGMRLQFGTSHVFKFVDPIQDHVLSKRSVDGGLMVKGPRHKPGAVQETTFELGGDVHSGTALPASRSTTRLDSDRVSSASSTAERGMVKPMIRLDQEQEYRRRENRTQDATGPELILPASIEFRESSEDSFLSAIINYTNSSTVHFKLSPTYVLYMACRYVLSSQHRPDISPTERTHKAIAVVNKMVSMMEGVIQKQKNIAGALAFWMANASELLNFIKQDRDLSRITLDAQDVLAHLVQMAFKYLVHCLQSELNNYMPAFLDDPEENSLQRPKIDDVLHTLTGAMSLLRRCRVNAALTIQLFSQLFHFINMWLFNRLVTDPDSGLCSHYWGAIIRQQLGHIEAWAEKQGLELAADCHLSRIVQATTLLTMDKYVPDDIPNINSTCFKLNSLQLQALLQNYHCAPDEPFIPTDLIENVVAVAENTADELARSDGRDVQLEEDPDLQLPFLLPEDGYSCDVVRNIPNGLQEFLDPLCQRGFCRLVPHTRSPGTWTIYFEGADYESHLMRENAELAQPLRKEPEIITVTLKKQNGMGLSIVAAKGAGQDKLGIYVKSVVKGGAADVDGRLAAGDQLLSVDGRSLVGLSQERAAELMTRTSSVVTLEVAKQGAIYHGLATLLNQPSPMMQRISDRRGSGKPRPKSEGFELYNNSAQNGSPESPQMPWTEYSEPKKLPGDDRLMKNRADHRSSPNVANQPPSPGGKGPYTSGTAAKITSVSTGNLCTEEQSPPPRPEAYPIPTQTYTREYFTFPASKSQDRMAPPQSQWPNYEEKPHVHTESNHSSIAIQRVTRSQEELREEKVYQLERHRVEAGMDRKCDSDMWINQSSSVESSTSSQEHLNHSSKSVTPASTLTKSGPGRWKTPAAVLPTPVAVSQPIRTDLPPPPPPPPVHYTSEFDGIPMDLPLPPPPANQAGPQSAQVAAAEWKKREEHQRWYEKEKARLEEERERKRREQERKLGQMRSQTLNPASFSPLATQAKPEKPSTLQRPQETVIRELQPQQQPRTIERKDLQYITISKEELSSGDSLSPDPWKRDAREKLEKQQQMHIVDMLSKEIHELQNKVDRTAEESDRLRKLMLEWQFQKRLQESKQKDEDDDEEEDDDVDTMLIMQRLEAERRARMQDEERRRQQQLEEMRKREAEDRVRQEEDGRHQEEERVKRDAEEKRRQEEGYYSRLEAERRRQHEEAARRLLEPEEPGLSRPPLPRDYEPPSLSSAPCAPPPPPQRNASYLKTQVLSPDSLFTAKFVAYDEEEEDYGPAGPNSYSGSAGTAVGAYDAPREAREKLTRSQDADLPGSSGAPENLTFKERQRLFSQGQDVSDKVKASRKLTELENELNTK
UniProt P29268, residues 26-348: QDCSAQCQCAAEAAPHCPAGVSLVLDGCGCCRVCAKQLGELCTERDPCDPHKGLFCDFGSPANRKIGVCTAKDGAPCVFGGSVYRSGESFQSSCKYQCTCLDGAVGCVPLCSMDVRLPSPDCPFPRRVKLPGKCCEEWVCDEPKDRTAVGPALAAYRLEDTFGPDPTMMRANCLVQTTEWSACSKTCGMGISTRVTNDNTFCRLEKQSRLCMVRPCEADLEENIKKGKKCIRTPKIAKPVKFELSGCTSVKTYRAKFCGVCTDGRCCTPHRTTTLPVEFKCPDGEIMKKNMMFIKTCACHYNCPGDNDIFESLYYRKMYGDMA
UniProt A2A884: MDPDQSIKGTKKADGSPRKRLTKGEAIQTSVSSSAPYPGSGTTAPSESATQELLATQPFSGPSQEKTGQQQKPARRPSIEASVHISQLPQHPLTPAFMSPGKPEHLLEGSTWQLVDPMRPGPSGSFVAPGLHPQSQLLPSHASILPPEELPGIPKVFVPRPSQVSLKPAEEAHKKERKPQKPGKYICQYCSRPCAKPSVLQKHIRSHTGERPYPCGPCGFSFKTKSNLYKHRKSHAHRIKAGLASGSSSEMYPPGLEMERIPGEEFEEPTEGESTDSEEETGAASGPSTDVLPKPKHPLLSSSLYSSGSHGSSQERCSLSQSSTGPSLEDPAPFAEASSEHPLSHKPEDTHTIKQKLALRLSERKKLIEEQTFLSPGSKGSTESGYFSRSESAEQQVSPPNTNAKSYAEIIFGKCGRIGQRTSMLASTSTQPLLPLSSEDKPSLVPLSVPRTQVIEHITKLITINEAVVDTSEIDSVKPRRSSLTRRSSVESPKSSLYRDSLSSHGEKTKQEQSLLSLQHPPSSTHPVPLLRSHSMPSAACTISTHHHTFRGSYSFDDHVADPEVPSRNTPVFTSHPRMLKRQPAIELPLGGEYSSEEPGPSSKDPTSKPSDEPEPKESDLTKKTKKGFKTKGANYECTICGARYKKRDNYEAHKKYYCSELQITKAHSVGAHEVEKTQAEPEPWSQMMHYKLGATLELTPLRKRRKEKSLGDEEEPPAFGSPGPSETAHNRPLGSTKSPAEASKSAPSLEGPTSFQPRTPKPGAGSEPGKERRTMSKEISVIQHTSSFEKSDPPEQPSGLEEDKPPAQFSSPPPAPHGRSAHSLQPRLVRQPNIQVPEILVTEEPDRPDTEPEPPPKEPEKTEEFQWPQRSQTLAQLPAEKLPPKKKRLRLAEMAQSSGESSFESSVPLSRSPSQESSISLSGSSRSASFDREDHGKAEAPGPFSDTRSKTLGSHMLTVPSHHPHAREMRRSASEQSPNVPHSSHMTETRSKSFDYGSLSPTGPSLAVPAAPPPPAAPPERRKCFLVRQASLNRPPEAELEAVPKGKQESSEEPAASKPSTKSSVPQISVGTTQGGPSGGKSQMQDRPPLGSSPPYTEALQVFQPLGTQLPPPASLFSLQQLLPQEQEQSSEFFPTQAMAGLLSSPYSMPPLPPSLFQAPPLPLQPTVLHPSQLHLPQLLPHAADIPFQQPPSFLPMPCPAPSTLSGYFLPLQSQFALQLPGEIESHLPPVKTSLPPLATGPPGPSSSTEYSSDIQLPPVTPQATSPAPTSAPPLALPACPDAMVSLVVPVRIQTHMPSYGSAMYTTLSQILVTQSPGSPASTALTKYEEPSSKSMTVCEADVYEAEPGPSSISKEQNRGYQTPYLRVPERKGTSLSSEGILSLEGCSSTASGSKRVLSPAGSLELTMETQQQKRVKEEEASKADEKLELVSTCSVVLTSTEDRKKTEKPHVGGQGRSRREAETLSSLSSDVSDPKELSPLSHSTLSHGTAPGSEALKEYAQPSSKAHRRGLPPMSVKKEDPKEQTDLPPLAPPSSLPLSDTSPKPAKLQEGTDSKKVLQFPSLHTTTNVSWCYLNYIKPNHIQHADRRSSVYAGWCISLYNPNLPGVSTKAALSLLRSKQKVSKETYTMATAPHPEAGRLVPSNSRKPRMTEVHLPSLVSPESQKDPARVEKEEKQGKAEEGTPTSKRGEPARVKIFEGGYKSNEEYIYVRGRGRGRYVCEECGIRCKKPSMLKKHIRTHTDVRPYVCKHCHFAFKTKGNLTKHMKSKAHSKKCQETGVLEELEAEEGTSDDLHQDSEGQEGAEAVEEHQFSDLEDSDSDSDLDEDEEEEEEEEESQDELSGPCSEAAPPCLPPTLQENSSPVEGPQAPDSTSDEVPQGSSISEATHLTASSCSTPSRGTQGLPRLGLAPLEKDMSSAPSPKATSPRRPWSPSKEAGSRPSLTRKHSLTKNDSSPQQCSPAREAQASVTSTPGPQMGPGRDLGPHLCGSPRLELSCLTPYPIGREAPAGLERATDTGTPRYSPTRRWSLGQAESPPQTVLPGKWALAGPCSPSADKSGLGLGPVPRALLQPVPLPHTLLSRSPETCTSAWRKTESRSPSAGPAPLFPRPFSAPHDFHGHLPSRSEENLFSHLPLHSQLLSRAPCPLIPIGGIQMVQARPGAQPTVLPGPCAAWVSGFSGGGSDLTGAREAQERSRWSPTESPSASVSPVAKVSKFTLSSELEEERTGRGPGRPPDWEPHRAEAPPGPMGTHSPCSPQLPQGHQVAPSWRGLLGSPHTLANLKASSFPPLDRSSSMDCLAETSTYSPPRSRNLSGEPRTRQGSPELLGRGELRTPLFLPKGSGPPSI

Substance | binding
eukaryotic translation initiation factor 3 subunit B (from UniProt Q8JZQ9 1-803) | binds

biological target: T1, UDP-N-acetylglucosamine-peptide N-acetylglucosaminyltransferase (mouse (endogenous in MEFs)); experiment: affinity purification with mass spectrometry; endogenous OGT immunoprecipitated (antibody AL24, protein G magnetic beads, TCL buffer: 50 mM Tris HCl, 150 mM NaCl, pH 7.5, 1% NP-40, 2 mM EDTA) from a 1:1:1 mix of SILAC-labelled lysates of WT, H2O2-treated (2.5 mM, 1.5 h) and OGT-null MEFs, precleared with rabbit IgG; in-gel trypsin digestion, LC-MS/MS; interactor if log2 WT or H2O2/null >=1 in 2 or more replicates

Substance | binding
tet methylcytosine dioxygenase 3 (from UniProt Q8BG87 1-1803) | binds
Eif3i (from UniProt Q9QZD9 1-325) | binds
Aars (from UniProt Q8BGQ7 1-968) | binds
Putative polycomb group protein ASXL1 (from UniProt P59598 1-1514) | binds
Zc3h13 (from UniProt E9Q784 1-1729) | binds
nucleoporin NUP188 homolog (from UniProt Q6ZQH8 1-1759) | binds
Usp10 (from UniProt P52479 1-792) | binds
KAT8 regulatory NSL complex subunit 3 isoform X4 (from UniProt A2RSY1 1-903) | binds
Large proline-rich protein BAG6 isoform X8 (from UniProt Q9Z1R2 1-1154) | binds
Chd3 (mouse (endogenous in MEFs)) | binds
kinesin heavy chain (mouse (endogenous in MEFs)) | binds
ankyrin repeat domain–containing protein 17 (from UniProt Q99NH0 1-2603) | binds
BCL-6 corepressor-like protein 1 isoform X1 (from UniProt A2AQH4 1-1781) | binds
Cope (from UniProt O89079 1-308) | binds
Plec (from UniProt Q9QXS1 1-4691) | binds
Eif3h (from UniProt Q91WK2 1-352) | binds
Mpst (from UniProt Q99J99 1-297) | binds
Mllt4 (from UniProt Q9QZQ1 1-1820) | binds
Anp32b (from UniProt Q9EST5 1-272) | binds
ran-binding protein 9 (from UniProt P69566 1-653) | binds

Substance | binding
CCR4-NOT transcription complex subunit 1 isoform X1 (from UniProt Q6ZQ08 1-2375) | binds
5'-AMP–activated protein kinase subunit gamma-1 (from UniProt O54950 1-330) | binds
Chd2 (from UniProt E9PZM4 1-1827) | binds
heat shock factor protein 1 (from UniProt P38532 1-525) | binds
Ctgf (from UniProt P29268 26-348) | binds
182-kDa tankyrase-1–binding protein (from UniProt P58871 1-1720) | binds
Fat1 (mouse (endogenous in MEFs)) | binds
Serine/threonine-protein kinase WNK1 isoform X1 (from UniProt P83741 1-2377) | binds
Transcription factor HIVEP3 isoform X1 (from UniProt A2A884 1-2348) | binds
Pard3 (from UniProt Q99NH2 1-1333) | binds
3-ketoacyl-CoA thiolase (mouse (endogenous in MEFs)) | binds
Nsun2 (from UniProt Q1HFZ0 1-757) | binds
Abnormal spindle-like microcephaly-associated protein homolog (from UniProt Q8CJ27-1 1-3122) | binds
Ndufs1 (from UniProt Q91VD9 24-727) | binds
Rrm2 (from UniProt P11157 1-390) | binds
Hivep2 (from UniProt Q3UHF7 1-2430) | binds
Usp5 (from UniProt P56399 1-858) | binds
Ptpn23 (from UniProt Q6PB44 1-1692) | binds
Cxxc1 (from UniProt Q9CWW7 1-660) | binds
eukaryotic translation initiation factor 3 subunit B (from UniProt Q8JZQ9 1-803) | binds

From PMC8079276
